Source: patent publication US20060088522A1, “Humanized anti-5T4 antibodies and anti-5T4/calicheamicin conjugates” (Wyeth, priority 2004, published 2006)
Results are given in words; binding and its absence hold for the method and conditions named. Some entries that bind do so weakly or less than the wild type. Each block holds one binder with its values, some of them ahead of it.

Assays:
human 5T4 antigen [1] = biological target: T1, human 5T4 antigen (human, UniProt Q13641 32-355, limits assumed); assay: Western blot of avidin-bound (A) and supernatant (S) protein from cells with (+B) or without (-B) biotin; the detecting antibody is not printed on the sheet, murine H8 by paragraph 236
T1 construct: Isolated antigen as used in BIACORE and ELISA; also called 5T4 oncofetal antigen
T1 sequence (looked up): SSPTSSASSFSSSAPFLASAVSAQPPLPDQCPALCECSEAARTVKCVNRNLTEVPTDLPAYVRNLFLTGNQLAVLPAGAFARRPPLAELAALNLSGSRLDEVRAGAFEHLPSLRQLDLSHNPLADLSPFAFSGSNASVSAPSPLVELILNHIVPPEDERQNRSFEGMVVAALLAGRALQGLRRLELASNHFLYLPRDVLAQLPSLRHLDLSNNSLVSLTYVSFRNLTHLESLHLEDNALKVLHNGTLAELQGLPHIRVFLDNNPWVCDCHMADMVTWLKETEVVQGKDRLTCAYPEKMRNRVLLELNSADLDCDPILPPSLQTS

human 5T4 antigen [2] = biological target: T1, human 5T4 antigen; assay: Western blot of diluted CT26/5T4 cell extracts; called the H8-reactive band in paragraph 24 and paragraph 239
human 5T4 antigen [3] = biological target: T1, human 5T4 antigen; assay: Western blot of avidin-bound (A) and supernatant (S) fractions after biotin treatment of the cells; the detecting antibody is not printed on the sheet, murine H8 by paragraph 236
human 5T4 antigen [4] = biological target: T1, human 5T4 antigen; assay: Western blot of lysates of cultured cells and of allografted tumors; the detecting antibody is not printed on the sheet, murine H8 by paragraph 236
human 5T4 antigen [5] = biological target: T1, human 5T4 antigen; assay: densitometry of the H8-reactive band of the Western blot of FIG. 3A, with linear regression
human 5T4 antigen [6] = biological target: T1, human 5T4 antigen; assay: BIACORE, human 5T4 antigen immobilized on a CM5 chip
human 5T4 antigen [7] = biological target: T1, human 5T4 antigen; assay: plasmon resonance

B1: murine H8 anti-5T4 antibody (antibody, V domains shown)
VH: EVQLQQSGPDLVKPGASVKISCKASGYSFTGYYMHWVKQSHGKSLEWIGRINPNNGVTLYNQKFKDKAILTVDKSSTTAYMELRSLTSEDSAVYYCARSTMITNYVMDYWGQVTSVTVSS
VL: SIVMTQTPTFLLVSAGDRVTITCKASQSVSNDVAWYQQKPGQSPTLLISYTSSRYAGVPDRFIGSGYGTDFTFTISTLQAEDLAVYFCQQDYNSPPTFGGGTKLEIK
notes: also called mAb5T4; H8 antibody
binding (human 5T4 antigen [1]): binds
binding (human 5T4 antigen [2]): binds
binding (human 5T4 antigen [3]): binds
binding (human 5T4 antigen [4]): binds
binding (human 5T4 antigen [5]): binds

binding (human 5T4 antigen [6]): binds
B2: Chimeric H8 (mVH/mVL) (antibody, V domains shown)
VH: B1 VH
VL: B1 VL
notes: also called chimeric H8 antibody; chimeric versions of H8

binding (human 5T4 antigen [7]): binds
B3: Murine H8/CM (antibody, V domains shown)
VH: B1 VH
VL: B1 VL
notes: also called murine H8-calicheamicin conjugates
